Test results published in patent US20160363580A1, “Methods of Metabolic Kinetic Phenotyping and Uses Thereof” (The Texas A&M University System, priority 2015, published 2016).

Legend:
[1] = Pulse tracer protocol (bolus L-[15N]-Phe), two compartmental model of Phe kinetics; type: in vivo, pigs
Procedure: Female Yorkshire cross/domestic pigs (20-25 kg BW) were used in the experimental studies. The pigs were housed in steel pens (2 m×3 m) in a controlled housing facility with large animal cubicle at room temperature 22-24° C. with 12 hours light-dark cycle. The pigs were fed with standardized food 1 kg/day (Harlan Teklad Vegetarian Pig/Sow Grower)) and provided water ad libitum.
Animals received catheters and a jejunal stoma during a surgical procedure. During midline laparotomy, catheters were placed into the abdominal aorta for blood sampling, and in the caval vein for administering post-surgery medication and experiment related tracer infusions. A second arterial catheter was placed to monitor mean arterial blood pressure (MAP). A Swan ganz catheter (5 Fr, #132F5, Edwards life sciences, Irvine, Calif., USA) was placed via the right jugular vein to monitor mean pulmonary blood pressure (MPAP). Both preoperative and postoperative cares were standardized. During the recovery period (7-10 days) animals were accustomed to a small movable cage (0.9×0.5×0.3 m). The experiments were performed in this cage on awake animals. This study was approved by the animal experiment ethics committee of University of Arkansas Medical Sciences.
For the induction of sepsis, a live Pseudomonas aeruginosa (PM) human strain is used (IRS 12-4-4, Shriners burns institute, University of Texas Medical Branch, Galveston). Originally, this PM strain was isolated from a burnt patient at Brook Army Medical Center in San Antonio, Tex. […] Hemodynamics was continuously monitored to ensure that the hyperdynamic state was kept in the expected ranges for severe sepsis (body temp increase of 2-3° C., respiratory rate increased, MPAP increased but <35 mmHg, heart rate increased but <200 BPM).
The experiment started after a recovery period of 7-10 days. […] Fluid resuscitation (30 ml/kg bw/hour) was also started at T=0 h and hemodynamics were monitored continuously. […]

[2] = Arterial plasma Phe tracee concentration during the experimental period; type: in vivo, pigs; details: median over the experimental period

N[C@@H](Cc1ccccc1)C(=O)O [Phe, phenylalanine]
WbRa of Phe, sepsis group versus healthy ([1]; PULSE method, p=0.0001): higher
WbRa, Pulse method relative to prime-constant infusion ([1]; pigs): about 1.6 times
intracellular protein breakdown relative to WbRa using pulse method ([1]; pigs): 1.7 times
plasma Phe concentration ([2]; Healthy pigs): 64.6 ± 4.0 µM
plasma Phe concentration ([2]; Sepsis pigs): 113 ± 8.3 µM
